Experimental data: patent US20220144911A1
No constants are given. Whether binding was seen depends on the method and setting. Some results given as binding are weak or reduced against the parent protein; the word gives no strength. Tags and fused reporters may be left off the sequences shown.

By UniProt entry, the sequences of proteins in these tests, tags left out. Residues count along the entry.
UniProt P51496, residues 19-178: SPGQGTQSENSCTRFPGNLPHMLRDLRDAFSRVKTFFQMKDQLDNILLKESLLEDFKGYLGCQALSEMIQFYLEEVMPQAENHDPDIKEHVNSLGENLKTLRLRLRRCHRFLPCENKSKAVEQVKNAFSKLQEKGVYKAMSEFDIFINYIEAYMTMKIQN

Experiments:
[1] = target: cellular RhIL10 (rhesus macaque) (UniProt P51496); experiment: SPR
[2] = target: cellular RhIL10 (rhesus macaque) (UniProt P51496); experiment: SPR sensorgrams

B1: RhIL10R1-FC-SLS (Fc fusion)
chain: AHGTELPSPPSVWFEAEFFHHILHWTPIPNQSESTCYEVALLRYGTGRWNSISNCSQALSYDLTAVTLDLYRSNGYWARVRAVDGSRHSNWTVTNTRFSLDEVTLTVGSVKLEIHNGFILGKIQPPRPKMAPANDTYESIFRHFREYEIAIRKVPGNFTFTHKKVKHENFSLLTSGEVGEFCVQVKPSVTSRTNKGMWSKEECVSLTRQYFTVTNVGSGGGGPSVFLFPPKPKDTLMISRTPEVTCVVVDVSQEDPDVKFNWYVNGAEVHHAQTKPRETQYNSTYRVVSVLTVTHQDWLNGKEYTCKVSNKALPAPIQKTISKDKGQPREPQVYTLPPSREELTKNQVSLTCLVKGFYPSDIVVEWESSGQPENTYKTTPPVLDSDGSYFLYSKLTVDKSRWQQGNVFSCSVMHEALHNHYTQKSLSLSGGCGTPGK
Question: For B1, which binding [1] is on record?
Answer: The binding was “binds”.

Question: And the binding [2]?
Answer: The binding was “binds”.
